Experimental data taken from the supplement of paper PMC10849652.
Some of the results follow.

By UniProt entry, the sequences of proteins in these tests, tags left out. Where a name states a change or a piece, a line headed by the entry shows the natural chain unless it says otherwise.
UniProt Q969T9: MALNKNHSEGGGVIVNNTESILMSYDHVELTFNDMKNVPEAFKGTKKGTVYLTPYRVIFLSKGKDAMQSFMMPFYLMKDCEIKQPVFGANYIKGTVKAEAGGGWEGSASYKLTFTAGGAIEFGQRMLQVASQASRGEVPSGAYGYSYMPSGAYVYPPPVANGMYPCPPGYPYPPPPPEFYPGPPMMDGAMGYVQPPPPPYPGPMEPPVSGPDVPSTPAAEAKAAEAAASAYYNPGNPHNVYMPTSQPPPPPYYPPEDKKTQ
UniProt Q5MNZ6: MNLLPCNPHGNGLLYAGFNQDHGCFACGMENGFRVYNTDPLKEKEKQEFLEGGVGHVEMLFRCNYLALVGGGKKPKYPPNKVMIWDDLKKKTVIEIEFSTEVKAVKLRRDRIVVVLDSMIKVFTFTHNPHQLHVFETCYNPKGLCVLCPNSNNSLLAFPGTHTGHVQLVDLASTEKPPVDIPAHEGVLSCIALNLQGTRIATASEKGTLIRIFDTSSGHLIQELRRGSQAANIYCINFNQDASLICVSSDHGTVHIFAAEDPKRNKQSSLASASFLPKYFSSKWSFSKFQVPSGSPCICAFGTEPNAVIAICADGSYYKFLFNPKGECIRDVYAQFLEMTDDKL
UniProt Q9Y484: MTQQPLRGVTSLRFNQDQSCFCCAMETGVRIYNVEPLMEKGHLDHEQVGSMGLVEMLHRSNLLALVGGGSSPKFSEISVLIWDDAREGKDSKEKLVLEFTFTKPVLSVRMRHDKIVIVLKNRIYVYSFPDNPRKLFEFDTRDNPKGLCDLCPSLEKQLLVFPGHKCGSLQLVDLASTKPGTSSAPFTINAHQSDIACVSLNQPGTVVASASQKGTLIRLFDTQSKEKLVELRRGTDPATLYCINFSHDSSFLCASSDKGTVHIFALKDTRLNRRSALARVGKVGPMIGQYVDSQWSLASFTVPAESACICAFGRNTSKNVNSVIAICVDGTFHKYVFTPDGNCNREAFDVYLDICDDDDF
UniProt Q96MX6, whole entry, looked up: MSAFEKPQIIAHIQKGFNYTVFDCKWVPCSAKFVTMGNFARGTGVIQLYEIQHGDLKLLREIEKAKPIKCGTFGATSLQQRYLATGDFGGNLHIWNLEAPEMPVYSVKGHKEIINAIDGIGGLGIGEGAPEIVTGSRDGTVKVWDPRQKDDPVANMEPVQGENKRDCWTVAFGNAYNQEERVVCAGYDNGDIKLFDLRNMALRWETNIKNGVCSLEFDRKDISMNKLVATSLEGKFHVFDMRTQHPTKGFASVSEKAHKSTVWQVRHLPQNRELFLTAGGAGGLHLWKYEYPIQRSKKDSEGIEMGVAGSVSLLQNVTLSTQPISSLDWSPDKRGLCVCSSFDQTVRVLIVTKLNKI
UniProt Q709C8: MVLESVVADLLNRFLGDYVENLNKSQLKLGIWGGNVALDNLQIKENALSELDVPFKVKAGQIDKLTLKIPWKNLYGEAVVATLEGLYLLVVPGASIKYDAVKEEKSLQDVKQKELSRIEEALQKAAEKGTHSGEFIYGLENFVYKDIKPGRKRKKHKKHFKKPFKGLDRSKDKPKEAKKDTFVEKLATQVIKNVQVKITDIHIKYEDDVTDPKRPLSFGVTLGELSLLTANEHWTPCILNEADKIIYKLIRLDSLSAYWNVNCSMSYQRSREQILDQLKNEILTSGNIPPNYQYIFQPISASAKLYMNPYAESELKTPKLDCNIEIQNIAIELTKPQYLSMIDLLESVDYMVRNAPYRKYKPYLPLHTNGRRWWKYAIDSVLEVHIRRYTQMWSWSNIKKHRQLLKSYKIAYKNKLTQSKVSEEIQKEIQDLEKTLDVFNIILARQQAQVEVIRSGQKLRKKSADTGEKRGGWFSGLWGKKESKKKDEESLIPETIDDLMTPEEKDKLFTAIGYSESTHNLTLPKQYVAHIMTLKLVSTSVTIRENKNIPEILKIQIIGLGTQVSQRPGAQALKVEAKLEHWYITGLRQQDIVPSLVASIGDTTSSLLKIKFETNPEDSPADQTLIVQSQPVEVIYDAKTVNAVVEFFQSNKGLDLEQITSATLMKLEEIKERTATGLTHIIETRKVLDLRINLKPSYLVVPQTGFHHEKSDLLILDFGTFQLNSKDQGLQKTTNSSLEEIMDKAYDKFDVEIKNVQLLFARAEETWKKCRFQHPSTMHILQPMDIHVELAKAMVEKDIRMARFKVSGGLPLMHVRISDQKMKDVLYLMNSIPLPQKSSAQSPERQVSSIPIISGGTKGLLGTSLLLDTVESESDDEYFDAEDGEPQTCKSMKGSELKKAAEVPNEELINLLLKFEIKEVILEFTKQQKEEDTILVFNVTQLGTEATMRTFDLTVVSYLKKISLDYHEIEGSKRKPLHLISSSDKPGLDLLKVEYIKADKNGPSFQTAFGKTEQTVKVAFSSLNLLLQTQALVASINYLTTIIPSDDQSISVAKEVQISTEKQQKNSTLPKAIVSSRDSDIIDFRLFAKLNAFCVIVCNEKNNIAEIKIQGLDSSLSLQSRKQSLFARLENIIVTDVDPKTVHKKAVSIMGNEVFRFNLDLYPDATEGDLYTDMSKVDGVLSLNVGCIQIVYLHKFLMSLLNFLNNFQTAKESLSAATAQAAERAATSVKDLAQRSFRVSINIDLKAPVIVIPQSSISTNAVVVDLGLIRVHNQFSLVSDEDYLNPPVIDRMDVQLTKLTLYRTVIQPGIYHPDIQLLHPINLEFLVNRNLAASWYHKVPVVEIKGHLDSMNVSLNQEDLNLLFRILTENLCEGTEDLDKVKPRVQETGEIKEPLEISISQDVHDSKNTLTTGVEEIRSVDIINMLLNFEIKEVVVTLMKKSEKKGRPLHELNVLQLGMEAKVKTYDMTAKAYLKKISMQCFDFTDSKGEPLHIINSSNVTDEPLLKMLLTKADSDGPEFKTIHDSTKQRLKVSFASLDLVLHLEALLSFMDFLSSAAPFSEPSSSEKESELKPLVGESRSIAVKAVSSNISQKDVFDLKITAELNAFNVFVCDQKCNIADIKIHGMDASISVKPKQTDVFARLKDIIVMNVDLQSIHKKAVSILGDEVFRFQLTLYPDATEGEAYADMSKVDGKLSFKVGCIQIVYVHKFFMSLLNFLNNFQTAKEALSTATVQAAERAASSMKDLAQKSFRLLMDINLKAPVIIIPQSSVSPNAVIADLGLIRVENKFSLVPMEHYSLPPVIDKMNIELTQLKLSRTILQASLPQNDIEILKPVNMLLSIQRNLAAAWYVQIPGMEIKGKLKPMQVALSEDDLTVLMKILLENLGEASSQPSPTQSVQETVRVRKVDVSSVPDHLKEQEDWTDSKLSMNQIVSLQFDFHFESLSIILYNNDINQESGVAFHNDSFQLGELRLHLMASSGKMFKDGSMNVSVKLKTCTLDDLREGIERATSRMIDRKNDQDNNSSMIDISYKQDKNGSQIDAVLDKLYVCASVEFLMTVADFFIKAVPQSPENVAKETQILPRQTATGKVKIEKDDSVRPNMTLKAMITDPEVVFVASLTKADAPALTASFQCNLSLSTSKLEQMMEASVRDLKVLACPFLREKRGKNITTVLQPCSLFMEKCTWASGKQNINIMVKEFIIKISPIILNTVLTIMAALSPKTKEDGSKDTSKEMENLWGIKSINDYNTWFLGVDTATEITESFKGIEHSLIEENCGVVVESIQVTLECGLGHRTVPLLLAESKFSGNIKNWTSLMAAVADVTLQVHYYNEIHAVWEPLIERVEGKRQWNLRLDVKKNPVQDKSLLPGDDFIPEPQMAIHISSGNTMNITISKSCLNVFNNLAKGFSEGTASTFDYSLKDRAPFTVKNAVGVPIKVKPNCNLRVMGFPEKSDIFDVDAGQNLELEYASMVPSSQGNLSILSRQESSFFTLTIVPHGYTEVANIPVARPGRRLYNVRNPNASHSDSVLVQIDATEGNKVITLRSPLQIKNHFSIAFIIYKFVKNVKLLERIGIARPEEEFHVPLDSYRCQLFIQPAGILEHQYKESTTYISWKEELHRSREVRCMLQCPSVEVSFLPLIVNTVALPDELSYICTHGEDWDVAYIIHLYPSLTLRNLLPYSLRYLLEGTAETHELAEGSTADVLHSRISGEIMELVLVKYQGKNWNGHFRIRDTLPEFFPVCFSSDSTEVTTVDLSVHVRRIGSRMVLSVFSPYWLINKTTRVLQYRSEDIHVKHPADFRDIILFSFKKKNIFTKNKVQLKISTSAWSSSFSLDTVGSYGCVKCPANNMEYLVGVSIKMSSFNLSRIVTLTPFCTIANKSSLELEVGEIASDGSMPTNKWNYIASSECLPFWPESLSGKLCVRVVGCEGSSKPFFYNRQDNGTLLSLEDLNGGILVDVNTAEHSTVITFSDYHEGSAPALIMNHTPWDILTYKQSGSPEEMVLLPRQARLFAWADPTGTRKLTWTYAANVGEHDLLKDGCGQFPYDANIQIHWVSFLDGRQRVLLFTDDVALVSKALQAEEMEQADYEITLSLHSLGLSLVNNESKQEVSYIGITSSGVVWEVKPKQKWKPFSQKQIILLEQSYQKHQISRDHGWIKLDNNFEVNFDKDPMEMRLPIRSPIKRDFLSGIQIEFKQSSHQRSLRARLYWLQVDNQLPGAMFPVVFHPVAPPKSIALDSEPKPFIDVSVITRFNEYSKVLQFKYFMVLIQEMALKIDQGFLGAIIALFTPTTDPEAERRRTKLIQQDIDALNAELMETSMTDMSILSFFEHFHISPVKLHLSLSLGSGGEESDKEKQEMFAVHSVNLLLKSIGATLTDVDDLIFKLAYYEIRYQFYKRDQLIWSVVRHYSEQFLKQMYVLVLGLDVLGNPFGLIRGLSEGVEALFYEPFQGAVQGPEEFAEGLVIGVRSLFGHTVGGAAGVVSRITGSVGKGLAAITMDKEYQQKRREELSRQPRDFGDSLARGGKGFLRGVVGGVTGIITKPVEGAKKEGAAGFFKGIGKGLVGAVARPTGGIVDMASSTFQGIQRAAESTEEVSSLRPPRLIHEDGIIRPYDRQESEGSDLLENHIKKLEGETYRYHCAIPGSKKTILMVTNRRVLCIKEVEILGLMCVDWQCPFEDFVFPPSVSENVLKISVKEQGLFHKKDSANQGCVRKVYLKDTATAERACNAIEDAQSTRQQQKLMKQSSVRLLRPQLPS
UniProt O00534: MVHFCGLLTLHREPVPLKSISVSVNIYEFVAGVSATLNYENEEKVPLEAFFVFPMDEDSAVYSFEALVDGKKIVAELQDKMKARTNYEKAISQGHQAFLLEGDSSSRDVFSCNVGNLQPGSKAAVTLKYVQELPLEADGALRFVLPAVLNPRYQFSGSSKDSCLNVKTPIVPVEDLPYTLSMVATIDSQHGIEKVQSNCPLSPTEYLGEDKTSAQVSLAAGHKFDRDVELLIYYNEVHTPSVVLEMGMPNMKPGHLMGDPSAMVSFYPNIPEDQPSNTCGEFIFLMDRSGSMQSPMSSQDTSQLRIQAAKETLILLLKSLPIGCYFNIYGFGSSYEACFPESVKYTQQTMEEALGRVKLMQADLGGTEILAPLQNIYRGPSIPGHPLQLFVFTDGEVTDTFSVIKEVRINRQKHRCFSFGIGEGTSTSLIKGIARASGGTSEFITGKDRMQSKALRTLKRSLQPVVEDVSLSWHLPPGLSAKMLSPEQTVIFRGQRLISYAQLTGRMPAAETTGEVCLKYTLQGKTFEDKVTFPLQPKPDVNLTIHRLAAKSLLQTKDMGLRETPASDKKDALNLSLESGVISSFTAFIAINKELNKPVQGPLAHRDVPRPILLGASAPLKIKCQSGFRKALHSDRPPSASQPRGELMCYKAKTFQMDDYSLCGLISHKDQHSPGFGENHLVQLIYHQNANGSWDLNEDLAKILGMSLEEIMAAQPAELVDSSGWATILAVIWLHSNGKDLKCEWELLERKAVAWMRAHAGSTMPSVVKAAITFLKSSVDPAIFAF
UniProt O75351, whole entry, looked up: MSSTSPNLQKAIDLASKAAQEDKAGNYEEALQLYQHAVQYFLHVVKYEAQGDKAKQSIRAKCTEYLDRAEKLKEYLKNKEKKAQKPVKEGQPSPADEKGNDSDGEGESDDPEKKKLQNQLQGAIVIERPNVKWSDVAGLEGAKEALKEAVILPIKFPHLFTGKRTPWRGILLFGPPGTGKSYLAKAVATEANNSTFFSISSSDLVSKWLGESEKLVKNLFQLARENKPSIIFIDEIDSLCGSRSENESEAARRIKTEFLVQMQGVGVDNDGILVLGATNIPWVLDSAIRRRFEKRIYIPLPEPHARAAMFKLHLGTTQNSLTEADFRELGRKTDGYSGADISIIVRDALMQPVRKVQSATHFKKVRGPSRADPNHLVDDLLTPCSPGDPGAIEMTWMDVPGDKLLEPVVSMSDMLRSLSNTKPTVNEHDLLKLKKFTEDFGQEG

Assays:
Test in all cases: log2 fold change, soluble protein after heating vs DMSO (PISA); higher = thermal stabilisation; K562 cells, 10 uM, 30 min; active = over 0.2 and 3.5 SD of the protein, either way, in both replicates (recomputed)
[1] = compound: CC1=C(C=C(C=C1)NC(=O)C2=CC(=CC=C2)C(C)(C)C#N)NC3=CC4=C(C=C3)N=CN(C4=O)C
In short: (§1)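 K562 cells (2×10^6 cells/mL) were treated with 10 μM compound for 30 min, and aliquots were heated for 3 min over 48°C-58°C. Pooled aliquots were extracted in PBS with 0.5% NP-40 at 4°C, and the supernatant after 21,000xg for 90 min was measured by TMTpro 16plex LC-MS/MS with channel sums equalised. Reported thermal stability, relative to control samples and from duplicates, is a log2 fold change.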

[2] = compound: CC1=C(C=C(C=C1)NC(=O)C2=CC(=CC=C2)N(C)C)NC(=O)C3=CC=C(C=C3)O
In short: as §1

[3] = compound: CC1=CC=C(C=C1)SC2=C3C=C(SC3=CN=C2)C(=O)N
In short: as §1

[4] = compound: CC1=NC(=CC=C1)C2=C(N=C(N2)C(C)(C)C)C3=CC4=NC=CN=C4C=C3
In short: as §1

[5] = compound: CCCCN(Cc1ccc(C(=O)NO)cc1)C(=O)Nc1ccccc1 [Nexturastat A]
In short: as §1

[6] = compound: CCCS(=O)(=O)Nc1ccc(F)c(C(=O)c2c[nH]c3ncc(-c4ccc(Cl)cc4)cc23)c1F [vemurafenib]
In short: as §1

[7] = compound: CCCS(=O)(=O)Nc1ccc(F)c(C(=O)c2c[nH]c3ncc(Cl)cc23)c1F
In short: as §1

[8] = compound: CCCc1cc(C)[nH]c(=O)c1CNC(=O)c1cc(-c2ccnc(N3CCN(C)CC3)c2)cc2c1cnn2C(C)C
In short: as §1

[9] = compound: CCN(CC)Cc1ccc2cc(COC(=O)Nc3ccc(C(=O)NO)cc3)ccc2c1 [givinostat]
In short: as §1

[10] = compound: CCN(CCCOc1ccc2c(Nc3cc(CC(=O)Nc4cccc(F)c4)[nH]n3)ncnc2c1)CCOP(=O)(O)O [barasertib]
In short: as §1

[11] = compound: CC[C@@H]1C(=O)N(C)c2cnc(Nc3ccc(C(=O)NC4CCN(C)CC4)cc3OC)nc2N1C1CCCC1
In short: as §1

[12] = compound: CC[C@@H]1C(=O)N(C)c2cnc(Nc3ccc(C(=O)N[C@H]4CC[C@H](N5CCN(CC6CC6)CC5)CC4)cc3OC)nc2N1C(C)C [volasertib]
In short: as §1

[13] = compound: CC[C@H](C)N1C=C(C2=C(C=C(C=C21)C3=CN=C(C=C3)N4CCNCC4)C(=O)NCC5=C(C=C(NC5=O)C)C)C
In short: as §1

[14] = compound: CC[C@H](C)[C@@H](C(=O)N[C@@H]([C@@H](C)O)C(=O)N[C@@H](CC(C)C)C(=O)[C@]1(CO1)C)NC(=O)[C@H]([C@@H](C)CC)N(C)C(=O)C [epoxomicin]
In short: as §1

[15] = compound: CCn1c(C(=O)N(C2CC2)C2CC2)cc2c3c(ncn3C)c(Nc3cc(C)n(C)n3)nc21
In short: as §1

[16] = compound: CCn1cc(-c2ccnc3[nH]c(-c4cccc(CN(C)C)c4)cc23)c(-c2ccc(NC(=O)N(C)C)cc2)n1
In short: as §1

[17] = compound: CN(C)CC(=O)Nc1ccc2[nH]c(=O)c3ccccc3c2c1
In short: as §1

[18] = compound: CN(CCOC1=CC=C(C=C1)C[C@H]2C(=O)NC(=O)S2)C3=CC=CC=N3 (racemic) [rosiglitazone]
In short: as §1

[19] = compound: CN1C2=C(C3=C1C(=O)N(N=C3)CC4=CC(=CC=C4)N)SC(=C2)S(=O)C
In short: as §1

[20] = compound: CN1CCC(CNc2ccc3ncc(-c4cccc(OC(F)(F)F)c4)n3n2)CC1
In short: as §1

Measured: log2 fold change

WDR55 (UniProt Q9H6Y2)
inactive: [1] 0.007 | [2] -0.03 | [3] 0.025 | [4] 0.023 | [5] -0.123 | [6] -0.028 | [7] -0.014 | [8] -0.032 | [9] -0.029 | [10] 0.01 | [11] -0.013 | [12] 0.021 | [13] 0 | [14] 0.034 | [15] 0.003 | [16] -0.037 | [17] 0.034 | [18] 0.008 | [19] -0.048 | [20] 0.003

WBP2 (UniProt Q969T9)
inactive: [1] -0.035 | [2] -0.009 | [3] -0.002 | [4] 0.024 | [5] 0.019 | [6] 0.026 | [7] -0.029 | [8] 0.03 | [9] -0.007 | [10] 0 | [11] -0.058 | [12] -0.017 | [13] 0.006 | [14] 0.019 | [15] 0.029 | [16] -0.072 | [17] 0.011 | [18] -0.004 | [19] -0.029 | [20] 0.09

WDR5 (UniProt P61964)
inactive: [1] -0.02 | [2] 0.029 | [3] -0.046 | [4] -0.021 | [5] 0.107 | [6] -0.065 | [7] -0.015 | [8] 0.064 | [9] -0.14 | [10] -0.091 | [11] 0.095 | [12] 0.135 | [13] -0.044 | [14] -0.114 | [15] -0.023 | [16] 0.099 | [17] -0.004 | [18] -0.085 | [19] 0.124 | [20] 0.091

VWDE (UniProt Q8N2E2)
inactive: [1] -0.014 | [2] -0.039 | [3] -0.034 | [4] -0.047 | [5] 0.044 | [6] -0.032 | [7] -0.055 | [8] 0.002 | [9] -0.012 | [10] 0.029 | [11] 0.009 | [12] -0.007 | [13] -0.053 | [14] 0.041 | [15] 0.024 | [16] -0.007 | [17] -0.048 | [18] -0.032 | [19] 0.042 | [20] 0.005

WDR45B (UniProt Q5MNZ6)
inactive: [1] 0.069 | [2] 0.01 | [3] 0.018 | [4] 0.042 | [5] 0.003 | [6] -0.015 | [7] -0.064 | [8] 0.021 | [9] 0.031 | [10] -0.021 | [11] 0.062 | [12] -0.025 | [13] 0.019 | [14] 0.034 | [15] -0.046 | [16] -0.131 | [17] 0.012 | [18] 0.038 | [19] -0.043 | [20] 0.017

WDR45 (UniProt Q9Y484)
inactive: [1] 0.001 | [2] 0.015 | [3] -0.009 | [4] 0.018 | [5] -0.054 | [6] 0.03 | [7] 0.004 | [8] -0.012 | [9] -0.021 | [10] 0.011 | [11] -0.005 | [12] -0.093 | [13] -0.03 | [14] -0.002 | [15] -0.012 | [16] -0.046 | [17] 0.048 | [18] 0.046 | [19] 0.012 | [20] -0.062

VPS4A (UniProt Q9UN37)
inactive: [1] 0.009 | [2] -0.07 | [3] 0.006 | [4] 0.008 | [5] -0.008 | [6] 0.072 | [7] 0.079 | [8] 0.006 | [9] 0.008 | [10] 0.047 | [11] -0.119 | [12] -0.15 | [13] 0.041 | [14] 0.078 | [15] 0 | [16] -0.01 | [17] -0.005 | [18] 0.114 | [19] -0.031 | [20] -0.086

VPS13D (UniProt Q5THJ4)
inactive: [1] -0.223 | [2] -0.001 | [3] 0.017 | [4] 0.035 | [5] 0.07 | [6] -0.056 | [7] -0.004 | [8] -0.139 | [9] 0.174 | [10] 0.076 | [11] -0.06 | [12] -0.115 | [13] -0.069 | [14] -0.049 | [15] 0.011 | [16] -0.045 | [17] -0.084 | [18] -0.052 | [19] 0.096 | [20] -0.119

VPS26B (UniProt Q4G0F5)
inactive: [1] 0.017 | [2] 0 | [3] -0.002 | [4] 0.018 | [5] -0.027 | [6] -0.026 | [7] 0.042 | [8] -0.043 | [9] 0.019 | [10] 0.019 | [11] -0.009 | [12] -0.068 | [13] 0.007 | [14] -0.029 | [15] 0 | [16] -0.103 | [17] -0.03 | [18] 0.016 | [19] -0.094 | [20] -0.173

VPS36 (UniProt Q86VN1)
inactive: [1] 0.007 | [2] -0.013 | [3] 0.029 | [4] 0.083 | [5] -0.089 | [6] 0.01 | [7] 0.011 | [8] -0.009 | [9] 0.034 | [10] 0.021 | [11] -0.018 | [12] -0.08 | [13] 0.046 | [14] 0.05 | [15] -0.019 | [16] -0.043 | [17] 0.003 | [18] 0.06 | [19] -0.062 | [20] 0.007

WDR92 (UniProt Q96MX6)
inactive: [1] 0.042 | [2] 0.031 | [3] -0.034 | [4] -0.011 | [5] 0.084 | [6] -0.031 | [7] 0.085 | [8] 0.074 | [9] -0.068 | [10] 0.071 | [11] -0.071 | [12] 0.077 | [13] 0.082 | [14] 0.044 | [15] -0.144 | [16] -0.032 | [17] -0.058 | [18] 0.024 | [19] -0.061 | [20] 0.185

VPS13C (UniProt Q709C8)
inactive: [1] 0.005 | [2] 0.002 | [3] 0.005 | [4] 0.014 | [5] -0.032 | [6] -0.015 | [7] 0.014 | [8] -0.039 | [9] 0.036 | [10] 0.029 | [11] -0.108 | [12] -0.18 | [13] -0.015 | [14] -0.002 | [15] 0.006 | [16] -0.046 | [17] 0.009 | [18] 0.037 | [19] -0.051 | [20] -0.065

VWA5A (UniProt O00534)
inactive: [1] -0.049 | [2] -0.02 | [3] 0.014 | [4] 0.048 | [5] -0.016 | [6] 0.077 | [7] 0.037 | [8] 0.001 | [9] 0.037 | [10] 0.062 | [11] -0.113 | [12] -0.169 | [13] -0.026 | [14] -0.008 | [15] -0.03 | [16] 0.058 | [17] 0.027 | [18] 0.061 | [19] -0.05 | [20] -0.061

VPS4B (UniProt O75351)
inactive: [1] -0.02 | [2] -0.027 | [3] -0.005 | [4] 0.067 | [5] -0.111 | [6] 0.01 | [7] 0.023 | [8] 0.012 | [9] 0.031 | [10] 0.023 | [11] -0.1 | [12] -0.131 | [13] 0.079 | [14] -0.001 | [15] 0 | [16] -0.034 | [17] 0.045 | [18] 0.044 | [19] -0.026 | [20] -0.111

WIPF2 (UniProt Q8TF74)
inactive: [1] -0.017 | [2] 0.004 | [3] -0.052 | [4] 0.015 | [5] 0.006 | [6] -0.049 | [7] -0.001 | [8] -0.012 | [9] -0.029 | [10] 0.009 | [11] 0 | [12] 0.048 | [13] 0.066 | [14] 0.029 | [15] -0.064 | [16] 0.04 | [17] -0.043 | [18] 0.007 | [19] -0.019 | [20] -0.141

WDR82 (UniProt Q6UXN9)
inactive: [1] 0.026 | [2] 0.008 | [3] -0.032 | [4] -0.082 | [5] 0.096 | [6] -0.073 | [7] 0.003 | [8] 0.066 | [9] -0.008 | [10] -0.088 | [11] 0.135 | [12] 0.098 | [13] -0.005 | [14] -0.092 | [15] -0.002 | [16] 0.136 | [17] -0.034 | [18] -0.079 | [19] 0.117 | [20] 0.213
